According to paper PMC10294612:

B1: HIP-mAID-HA (TgHIP with a C-terminal miniAID-3HA tag) (protein, UniProt S8GK24 1-425)
chain: MAALSPQKVAELKAFIGMCERDPSILHRPELSFFKEYLQSLKAAIPAERQAGAGSPDRPTTSPVPEASSDDSSLESEVEEFDEESLKDSEVIPPETSPLPPLAPEGEKELTDDELDKLGKLKEEASAACEAGNSERALEKFTEALLIGNPTALLYTRRADVLLKLKRPVACIRDCDEALKLNPDSARAYKIRGKANRLLGKWREAHSDLDMGQKIDYDEGLWDMQKLVDEKFKKIEEHERKIVRKCEEAEKKRREKEARKRRAAAQRAYEEQKQRDAAGSGGFPGGFPEGFPGFGGGAGFPGGAGGFGYSGGMPGTFPSSSCGGSGMTGTPGGCCGGMGGGCGGGMPSNSVPGGAGNLFGALNDPELKKLFENPKMMAAFQDIMSNPSSISKYASDPEVMAAMGSLTSKFGGGVPGAGFPTGSPM

Key:
[1] = biological target: T1, HIP-mAID-HA (TgHIP with a C-terminal miniAID-3HA tag) (Toxoplasma gondii (endogenous locus in RHΔKu80-Tir1)) (UniProt S8GK24); test: affinity purification with mass spectrometry; lysates of HIP-mAID-HA/HOOK-Ty or FTS-mAID-HA parasites (±IAA 24 h) in 1% Triton X-100-PBS; anti-HA or anti-Ty antibodies with Protein A-Sepharose, 4°C; eluate read by MS
T1 sequence: B1 chain

[2] = biological target: TgHOOK endogenously Ty-tagged in the HIP-mAID-HA strain (HOOK-Ty) (Toxoplasma gondii (endogenous locus in RHΔKu80-Tir1)); test: as above

Molecule | binding [1] | binding [2]
TgHOOK endogenously Ty-tagged in the HIP-mAID-HA strain (HOOK-Ty) | binds | –
B1 | – | binds

No constants are given. Whether binding was seen depends on the method and setting. Binding seen in cells or lysates may run through a third protein. Here binding means that the protein was enriched with, or labelled near, the bait; the list need not be complete. Tags and fused reporters may be left off the sequences shown.
